Experimental data as given in article PMC12065020.
Results are given in words; binding and its absence hold for the method and conditions named. Binding seen in cells or lysates may run through a third protein. Here binding means that the protein was enriched with, or labelled near, the bait; the list need not be complete.

Amino acid sequences for entries named in this document (tags omitted).
UniProt P08670: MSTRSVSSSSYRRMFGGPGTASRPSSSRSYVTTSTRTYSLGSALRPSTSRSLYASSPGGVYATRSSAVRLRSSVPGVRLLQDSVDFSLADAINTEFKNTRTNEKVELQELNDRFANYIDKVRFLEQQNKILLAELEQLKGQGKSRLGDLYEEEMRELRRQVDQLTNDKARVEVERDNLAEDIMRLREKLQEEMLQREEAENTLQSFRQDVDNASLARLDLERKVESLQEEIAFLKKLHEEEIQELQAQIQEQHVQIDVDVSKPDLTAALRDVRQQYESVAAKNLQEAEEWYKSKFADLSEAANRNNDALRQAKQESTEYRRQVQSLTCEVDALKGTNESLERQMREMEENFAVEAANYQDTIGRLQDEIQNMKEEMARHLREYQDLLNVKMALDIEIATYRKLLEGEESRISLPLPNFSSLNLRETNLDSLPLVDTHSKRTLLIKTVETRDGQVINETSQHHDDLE

B1: ATP-binding cassette subfamily D member 3 (protein, UniProt P28288 1-659)
chain: MAAFSKYLTARNSSLAGAAFLLLCLLHKRRRALGLHGKKSGKPPLQNNEKEGKKERAVVDKVFFSRLIQILKIMVPRTFCKETGYLVLIAVMLVSRTYCDVWMIQNGTLIESGIIGRSRKDFKRYLLNFIAAMPLISLVNNFLKYGLNELKLCFRVRLTKYLYEEYLQAFTYYKMGNLDNRIANPDQLLTQDVEKFCNSVVDLYSNLSKPFLDIVLYIFKLTSAIGAQGPASMMAYLVVSGLFLTRLRRPIGKMTITEQKYEGEYRYVNSRLITNSEEIAFYNGNKREKQTVHSVFRKLVEHLHNFILFRFSMGFIDSIIAKYLATVVGYLVVSRPFLDLSHPRHLKSTHSELLEDYYQSGRMLLRMSQALGRIVLAGREMTRLAGFTARITELMQVLKDLNHGKYERTMVSQQEKGIEGVQVIPLIPGAGEIIIADNIIKFDHVPLATPNGDVLIRDLNFEVRSGANVLICGPNGCGKSSLFRVLGELWPLFGGRLTKPERGKLFYVPQRPYMTLGTLRDQVIYPDGREDQKRKGISDLVLKEYLDNVQLGHILEREGGWDSVQDWMDVLSGGEKQRMAMARLFYHKPQFAILDECTSAVSVDVEGYIYSHCRKVGITLFTVSHRKSLWKHHEYYLHMDGRGNYEFKQITEDTVEFGS
B2: Protein S100-A11 (protein, UniProt P31949 1-105)
chain: MAKISSPTETERCIESLIAVFQKYAGKDGYNYTLSKTEFLSFMNTELAAFTKNQKDPGVLDRMMKKLDTNSDGQLDFSEFLNLIGGLAMACHDSFLKAVPSQKRT
B3: Protein S100-A16 (protein, UniProt Q96FQ6 1-103)
chain: MSDCYTELEKAVIVLVENFYKYVSKYSLVKNKISKSSFREMLQKELNHMLSDTGNRKAADKLIQNLDANHDGRISFDEYWTLIGGITGPIAKLIHEQEQQSSS
B4: Protein S100-A13 (protein, UniProt Q99584 1-98)
chain: MAAEPLTELEESIETVVTTFFTFARQEGRKDSLSVNEFKELVTQQLPHLLKDVGSLDEKMKSLDVNQDSELKFNEYWRLIGELAKEIRKKKDLKIRKK
B5: Annexin A1 (protein, UniProt P04083 1-346)
chain: MAMVSEFLKQAWFIENEEQEYVQTVKSSKGGPGSAVSPYPTFNPSSDVAALHKAIMVKGVDEATIIDILTKRNNAQRQQIKAAYLQETGKPLDETLKKALTGHLEEVVLALLKTPAQFDADELRAAMKGLGTDEDTLIEILASRTNKEIRDINRVYREELKRDLAKDITSDTSGDFRNALLSLAKGDRSEDFGVNEDLADSDARALYEAGERRKGTDVNVFNTILTTRSYPQLRRVFQKYTKYSKHDMNKVLDLELKGDIEKCLTAIVKCATSKPAFFAEKLHQAMKGVGTRHKALIRIMVSRSEIDMNDIKAFYQKMYGISLCQAILDETKGDYEKILVALCGGN
B6: ATP-binding cassette subfamily F member 2 (protein, UniProt Q9UG63 1-623)
chain: MPSDLAKKKAAKKKEAAKARQRPRKGHEENGDVVTEPQVAEKNEANGRETTEVDLLTKELEDFEMKKAAARAVTGVLASHPNSTDVHIINLSLTFHGQELLSDTKLELNSGRRYGLIGLNGIGKSMLLSAIGKREVPIPEHIDIYHLTREMPPSDKTPLHCVMEVDTERAMLEKEAERLAHEDAECEKLMELYERLEELDADKAEMRASRILHGLGFTPAMQRKKLKDFSGGWRMRVALARALFIRPFMLLLDEPTNHLDLDACVWLEEELKTFKRILVLVSHSQDFLNGVCTNIIHMHNKKLKYYTGNYDQYVKTRLELEENQMKRFHWEQDQIAHMKNYIARFGHGSAKLARQAQSKEKTLQKMMASGLTERVVSDKTLSFYFPPCGKIPPPVIMVQNVSFKYTKDGPCIYNNLEFGIDLDTRVALVGPNGAGKSTLLKLLTGELLPTDGMIRKHSHVKIGRYHQHLQEQLDLDLSPLEYMMKCYPEIKEKEEMRKIIGRYGLTGKQQVSPIRNLSDGQKCRVCLAWLAWQNPHMLFLDEPTNHLDIETIDALADAINEFEGGMMLVSHDFRLIQQVAQEIWVCEKQTITKWPGDILAYKEHLKSKLVDEEPQLTKRTHNV
B7: ATP-binding cassette subfamily F member 3 (protein, UniProt Q9NUQ8 1-709)
chain: MATCAEILRSEFPEIDGQVFDYVTGVLHSGSADFESVDDLVEAVGELLQEVSGDSKDDAGIRAVCQRMYNTLRLAEPQSQGNSQVLLDAPIQLSKITENYDCGTKLPGLLKREQSSTVNAKKLEKAEARLKAKQEKRSEKDTLKTSNPLVLEEASASQAGSRKESRLESSGKNKSYDVRIENFDVSFGDRVLLAGADVNLAWGRRYGLVGRNGLGKTTLLKMLATRSLRVPAHISLLHVEQEVAGDDTPALQSVLESDSVREDLLRRERELTAQIAAGRAEGSEAAELAEIYAKLEEIEADKAPARASVILAGLGFTPKMQQQPTREFSGGWRMRLALARALFARPDLLLLDEPTNMLDVRAILWLENYLQTWPSTILVVSHDRNFLNAIATDIIHLHSQRLDGYRGDFETFIKSKQERLLNQQREYEAQQQYRQHIQVFIDRFRYNANRASQVQSKLKMLEKLPELKPVDKESEVVMKFPDGFEKFSPPILQLDEVDFYYDPKHVIFSRLSVSADLESRICVVGENGAGKSTMLKLLLGDLAPVRGIRHAHRNLKIGYFSQHHVEQLDLNVSAVELLARKFPGRPEEEYRHQLGRYGISGELAMRPLASLSGGQKSRVAFAQMTMPCPNFYILDEPTNHLDMETIEALGRALNNFRGGVILVSHDERFIRLVCRELWVCEGGGVTRVEGGFDQYRALLQEQFRREGFL
B8: Catenin beta-1, P35222 1-781 (protein)
chain: MATQADLMELDMAMEPDRKAAVSHWQQQSYLDSGIHSGATTTAPSLSGKGNPEEEDVDTSQVLYEWEQGFSQSFTQEQVADIDGQYAMTRAQRVRAAMFPETLDEGMQIPSTQFDAAHPTNVQRLAEPSQMLKHAVVNLINYQDDAELATRAIPELTKLLNDEDQVVVNKAAVMVHQLSKKEASRHAIMRSPQMVSAIVRTMQNTNDVETARCTAGTLHNLSHHREGLLAIFKSGGIPALVKMLGSPVDSVLFYAITTLHNLLLHQEGAKMAVRLAGGLQKMVALLNKTNVKFLAITTDCLQILAYGNQESKLIILASGGPQALVNIMRTYTYEKLLWTTSRVLKVLSVCSSNKPAIVEAGGMQALGLHLTDPSQRLVQNCLWTLRNLSDAATKQEGMEGLLGTLVQLLGSDDINVVTCAAGILSNLTCNNYKNKMMVCQVGGIEALVRTVLRAGDREDITEPAICALRHLTSRHQEAEMAQNAVRLHYGLPVVVKLLHPPSHWPLIKATVGLIRNLALCPANHAPLREQGAIPRLVQLLVRAHQDTQRRTSMGGTQQQFVEGVRMEEIVEGCTGALHILARDVHNRIVIRGLNTIPLFVQLLYSPIENIQRVAAGVLCELAQDKEAAEAIEAEGATAPLTELLHSRNEGVATYAAAVLFRMSEDKPQDYKKRLSVELTSSLFRTEPMAWNETADLGLDIGAQGEPLGYRQDDPSYRSFHSGGYGQDALGMDPMMEHEMGGHHPGADYPVDGLPDLGHAQDLMDGLPPGDSNQLAWFDTDL

Each binder was assayed against Vimentin (human (endogenous in hGF)) (UniProt P08670) (assay: affinity purification with mass spectrometry; vimentin immunoprecipitated from hGF lysates with vimentin antibody on Protein A Dynabeads; pre-immune serum beads subtracted; four replicated experiments). Conditions: not given.

Row | binding | Binder
1 | binds | B1
2 | binds | B2
3 | binds | B3
4 | binds | B4
5 | binds | B5
6 | binds | B6
7 | binds | B7

The binders below were run against Vimentin (human (endogenous in hGF)), P08670 in the same assay as above. Conditions: remark: other sources report otherwise.

Row | binding | Binder
8 | binds | B8
